Laboratory results as given in PMC10147607, “MSI2 promotes translation of multiple IRES-containing oncogenes and virus to induce self-renewal of tumor initiating stem-like cells” (Cell Death Discovery, 2023).
Construct, isoform or probe ends are uncertain for at least one entry. At least one verdict rests on a figure or table, not on a statement of the authors.

Chains of the proteins cited; added tags and fusions are not shown. Lines headed by an entry give the natural chain unless they say otherwise; changes in a name come on top.
UniProt Q96DH6: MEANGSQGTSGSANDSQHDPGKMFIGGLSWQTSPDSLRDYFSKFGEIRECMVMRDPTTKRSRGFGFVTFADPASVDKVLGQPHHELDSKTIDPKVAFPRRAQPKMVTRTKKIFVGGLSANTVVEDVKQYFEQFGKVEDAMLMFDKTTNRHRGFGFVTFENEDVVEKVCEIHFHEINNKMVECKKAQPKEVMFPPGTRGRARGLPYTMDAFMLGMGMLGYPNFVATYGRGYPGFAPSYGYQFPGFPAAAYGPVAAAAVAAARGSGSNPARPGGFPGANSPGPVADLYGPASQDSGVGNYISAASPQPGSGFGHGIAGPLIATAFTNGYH

Target: MSI2 (human) (UniProt Q96DH6)
Assay: fluorescence polarization
Settings: recombinant protein; protein details: His6; label: FITC

**Q.** Does “AAUUCCAGCGAGAG [FITC MYC IRES MSI2-ligand RNA wild type]” bind?
**A.** binds
